Results published in PubChem BioAssay AID208 (DTP/NCI, 2004).
The list is a part of this screen's results and no random one: it covers a few groups of compounds. Other doses and runs of a compound may be missing. T/C: endpoint of the treated group in % of that of the vehicle group. Schedule codes are those of the source, taken here to give the interval after Q, in days (D) or hours (H), and the number of doses after X. Some entries give survivors of the animals treated and no T/C: the source holds a T/C of zero for them, seemingly a mark for toxic or unscored doses. Counts of survivors are from the toxicity check, whose day is not always given; animals may have died later.

Tested on: HT29 intrarenal xenograft, nude mice, tumor weight change
Assay: NCI In Vivo Anticancer Drug Screen. Data for tumor model HT29;CX-1 Human Adenocarcinoma (MER+) (intrarenal inoculation) in NU/NU BALB/C (nude) mice
Settings: T/C endpoint: mean tumor weight change, schedule: Q04DX004 (sc), higher T/C = larger tumour; for T/C: evaluated on day 15
Experimental: The antitumor activity of compounds was measured in mice bearing transplantable tumors. Survival or tumor size were measured and the results are expressed as the measurement made in the treated group (T) divided by the measurement made in the vehicle treated control group (C). The tumor model used in this assay is HT29;CX-1 Human Adenocarcinoma (MER+) (intrarenal inoculation) in NU/NU BALB/C (nude) mice

In the case of NC1CCCCC1.NP(=O)(O)N(CCCl)CCCl, the T/C (dose: 37.5 mg/kg/injection, vehicle: water) is reported as 27 % of control, the T/C (dose: 75.0 mg/kg/injection, vehicle: water) is reported as 36 % of control and the T/C (dose: 150.0 mg/kg/injection, vehicle: saline) is reported as 61 % of control. For the same compound, the T/C (dose: 150.0 mg/kg/injection, vehicle: water) was 108 % of control, the survivor count (dose: 300.0 mg/kg/injection, vehicle: saline) was 0 of 3 on day 15 and the survivor count (dose: 600.0 mg/kg/injection, vehicle: saline) was 0 of 3 on day 15.
